The target of this assay is T1, Myc-STAG2 WT (human) (UniProt Q8N3U4).
T1 sequence: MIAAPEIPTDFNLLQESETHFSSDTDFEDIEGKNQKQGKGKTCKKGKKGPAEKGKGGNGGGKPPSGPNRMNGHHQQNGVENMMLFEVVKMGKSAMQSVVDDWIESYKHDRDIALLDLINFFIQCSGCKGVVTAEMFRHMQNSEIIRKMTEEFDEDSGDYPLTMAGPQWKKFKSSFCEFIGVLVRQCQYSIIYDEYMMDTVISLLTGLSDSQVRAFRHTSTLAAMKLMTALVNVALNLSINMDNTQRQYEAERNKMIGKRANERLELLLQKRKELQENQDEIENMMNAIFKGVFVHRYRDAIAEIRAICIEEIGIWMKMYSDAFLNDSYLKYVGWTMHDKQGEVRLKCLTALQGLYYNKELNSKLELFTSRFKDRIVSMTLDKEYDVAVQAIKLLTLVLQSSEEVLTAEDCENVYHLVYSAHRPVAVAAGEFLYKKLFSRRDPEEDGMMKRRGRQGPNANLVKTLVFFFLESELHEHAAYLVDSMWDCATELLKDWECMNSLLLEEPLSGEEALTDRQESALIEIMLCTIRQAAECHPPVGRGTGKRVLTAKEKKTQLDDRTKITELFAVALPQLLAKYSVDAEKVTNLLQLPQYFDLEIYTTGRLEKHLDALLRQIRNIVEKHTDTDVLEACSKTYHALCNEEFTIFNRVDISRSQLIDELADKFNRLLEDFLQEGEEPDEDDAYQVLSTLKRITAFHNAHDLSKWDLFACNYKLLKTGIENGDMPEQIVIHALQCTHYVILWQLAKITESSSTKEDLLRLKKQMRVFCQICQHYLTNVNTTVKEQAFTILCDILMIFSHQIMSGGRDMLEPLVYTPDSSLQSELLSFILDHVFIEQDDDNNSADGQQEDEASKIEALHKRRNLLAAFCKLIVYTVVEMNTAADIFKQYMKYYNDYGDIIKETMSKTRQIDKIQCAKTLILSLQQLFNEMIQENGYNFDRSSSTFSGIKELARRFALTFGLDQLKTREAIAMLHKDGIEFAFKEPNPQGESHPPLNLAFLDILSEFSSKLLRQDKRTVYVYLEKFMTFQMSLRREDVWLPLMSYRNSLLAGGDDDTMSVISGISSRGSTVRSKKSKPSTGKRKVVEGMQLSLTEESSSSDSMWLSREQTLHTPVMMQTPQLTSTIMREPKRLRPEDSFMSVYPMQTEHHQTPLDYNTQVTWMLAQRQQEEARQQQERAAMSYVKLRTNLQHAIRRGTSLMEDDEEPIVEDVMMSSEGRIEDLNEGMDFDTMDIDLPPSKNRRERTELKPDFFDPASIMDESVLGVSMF
The experiment in a line: co-IP; anti-Myc beads, lysates of HeLa Tet-On cells transfected with Myc-STAG2 WT or mutants; 3 h at 4 °C; washes with lysis buffer containing 200 mM NaCl; blots for endogenous proteins.

The text below walks through data of PMC5677968, “Familial STAG2 germline mutation defines a new human cohesinopathy” (NPJ Genomic Medicine, 2017).

Results are given in words; binding and its absence hold for the method and conditions named. Binding seen in cells or lysates may run through a third protein. Binding calls can cover weak binding; strength is not graded here. Sequences can lack the tags named with a protein.

In the case of “endogenous SMC1 (human (endogenous in HeLa))”, the binding result is reported as “binds”.
